The supplement of paper PMC8728848
The other results are listed elsewhere or left out.

Legend:
Experiment in all cases: glycan array binding signal (z-score within array); higher = stronger binding
Settings in all cases: glycan notation: IUPAC condensed, linker removed
[1] = molecular target: Neu5Ac(a2-3)Gal(b1-3)GlcNAc6S
Summary of the method: (§1)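 From the Consortium for Functional Glycomics database, 3228 arrays were curated, keeping only those whose protein sequence was available. Binding is given as a within-array Z-score averaged across arrays sharing a protein sequence and across linkers. Negative Z-scores can be read as non-binding.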

[2] = molecular target: Neu5Ac(a2-3)Gal(b1-3)[Fuc(a1-4)]GlcNAc
Summary of the method: as §1

[3] = molecular target: Neu5Ac(a2-3)Gal(b1-3)[Fuc(a1-4)]GlcNAc(b1-3)Gal(b1-3)[Fuc(a1-4)]GlcNAc
Summary of the method: as §1

[4] = molecular target: Neu5Ac(a2-3)Gal(b1-3)[Fuc(a1-4)]GlcNAc(b1-3)Gal(b1-4)[Fuc(a1-3)]GlcNAc
Summary of the method: as §1

[5] = molecular target: Neu5Ac(a2-3)Gal(b1-3)[GlcNAc(b1-6)]GalNAc
Summary of the method: as §1

[6] = molecular target: Neu5Ac(a2-3)Gal(b1-3)[Neu5Ac(a2-6)]GalNAc
Summary of the method: as §1

[7] = molecular target: Neu5Ac(a2-3)Gal(b1-3)[Neu5Ac(a2-6)]GlcNAc(b1-3)[Fuc(a1-3)[Gal(b1-4)]GlcNAc(b1-6)]Gal(b1-4)Glc
Summary of the method: as §1

[8] = molecular target: Neu5Ac(a2-3)Gal(b1-3)]Neu5Ac(a2-3)Gal(b1-4)]GlcNAc
Summary of the method: as §1

Neu5Ac(a2-3)Gal(b1-4)Glc = molecular target: Neu5Ac(a2-3)Gal(b1-4)Glc
Summary of the method: as §1

[9] = molecular target: Neu5Ac(a2-3)Gal(b1-4)GlcNAc
Summary of the method: as §1

[10] = molecular target: Neu5Ac(a2-3)Gal(b1-4)GlcNAc(b1-2)Man
Summary of the method: as §1

[11] = molecular target: Neu5Ac(a2-3)Gal(b1-4)GlcNAc(b1-2)Man(a1-3)[GlcNAc(b1-4)][Neu5Ac(a2-3)Gal(b1-4)GlcNAc(b1-2)Man(a1-6)]Man(b1-4)GlcNAc(b1-4)GlcNAc
Summary of the method: as §1

[12] = molecular target: Neu5Ac(a2-3)Gal(b1-4)GlcNAc(b1-2)Man(a1-3)[Neu5Ac(a2-3)Gal(b1-4)GlcNAc(b1-2)Man(a1-6)]Man(b1-4)GlcNAc(b1-4)GlcNAc
Summary of the method: as §1

[13] = molecular target: Neu5Ac(a2-3)Gal(b1-4)GlcNAc(b1-2)Man(a1-3)[Neu5Ac(a2-3)Gal(b1-4)GlcNAc(b1-2)Man(a1-6)]Man(b1-4)GlcNAc(b1-4)[Fuc(a1-6)]GlcNAc
Summary of the method: as §1

[14] = molecular target: Neu5Ac(a2-3)Gal(b1-4)GlcNAc(b1-2)Man(a1-3)[Neu5Ac(a2-6)Gal(b1-4)GlcNAc(b1-2)Man(a1-6)]Man(b1-4)GlcNAc(b1-4)GlcNAc
Summary of the method: as §1

[15] = molecular target: Neu5Ac(a2-3)Gal(b1-4)GlcNAc(b1-2)[Neu5Ac(a2-3)Gal(b1-4)GlcNAc(b1-4)]Man(a1-3)[GlcNAc(b1-4)][Neu5Ac(a2-3)Gal(b1-4)GlcNAc(b1-2)[Neu5Ac(a2-3)Gal(b1-4)GlcNAc(b1-6)]Man(a1-6)]Man(b1-4)GlcNAc(b1-4)GlcNAc
Summary of the method: as §1

[16] = molecular target: Neu5Ac(a2-3)Gal(b1-4)GlcNAc(b1-2)[Neu5Ac(a2-3)Gal(b1-4)GlcNAc(b1-4)]Man(a1-3)[GlcNAc(b1-4)][Neu5Ac(a2-3)Gal(b1-4)GlcNAc(b1-4)Man(a1-6)]Man(b1-4)GlcNAc(b1-4)GlcNAc
Summary of the method: as §1

[17] = molecular target: Neu5Ac(a2-3)Gal(b1-4)GlcNAc(b1-2)[Neu5Ac(a2-3)Gal(b1-4)GlcNAc(b1-6)]Man(a1-6)[Neu5Ac(a2-3)Gal(b1-4)GlcNAc(b1-2)Man(a1-3)][GlcNAc(b1-4)]Man(b1-4)GlcNAc(b1-4)GlcNAc
Summary of the method: as §1

[18] = molecular target: Neu5Ac(a2-3)Gal(b1-4)GlcNAc(b1-3)Gal
Summary of the method: as §1

[19] = molecular target: Neu5Ac(a2-3)Gal(b1-4)GlcNAc(b1-3)Gal(b1-3)GlcNAc
Summary of the method: as §1

[20] = molecular target: Neu5Ac(a2-3)Gal(b1-4)GlcNAc(b1-3)Gal(b1-4)GlcNAc
Summary of the method: as §1

[21] = molecular target: Neu5Ac(a2-3)Gal(b1-4)GlcNAc(b1-3)Gal(b1-4)GlcNAc(b1-2)Man(a1-3)[Neu5Ac(a2-3)Gal(b1-4)GlcNAc(b1-3)Gal(b1-4)GlcNAc(b1-2)Man(a1-6)]Man(b1-4)GlcNAc(b1-4)GlcNAc
Summary of the method: as §1

[22] = molecular target: Neu5Ac(a2-3)Gal(b1-4)GlcNAc(b1-3)Gal(b1-4)GlcNAc(b1-3)Gal(b1-4)GlcNAc
Summary of the method: as §1

[23] = molecular target: Neu5Ac(a2-3)Gal(b1-4)GlcNAc(b1-3)Gal(b1-4)GlcNAc(b1-3)Gal(b1-4)GlcNAc(b1-2)Man(a1-3)[Neu5Ac(a2-3)Gal(b1-4)GlcNAc(b1-3)Gal(b1-4)GlcNAc(b1-3)Gal(b1-4)GlcNAc(b1-2)Man(a1-6)]GalNAc
Summary of the method: as §1

[24] = molecular target: Neu5Ac(a2-3)Gal(b1-4)GlcNAc(b1-3)Gal(b1-4)GlcNAc(b1-3)GalNAc
Summary of the method: as §1

[25] = molecular target: Neu5Ac(a2-3)Gal(b1-4)GlcNAc(b1-3)Gal(b1-4)GlcNAc(b1-3)[Neu5Ac(a2-3)Gal(b1-4)GlcNAc(b1-3)Gal(b1-4)GlcNAc(b1-6)]GalNAc
Summary of the method: as §1

[26] = molecular target: Neu5Ac(a2-3)Gal(b1-4)GlcNAc(b1-3)Gal(b1-4)GlcNAc(b1-6)[Gal(b1-3)]GalNAc
Summary of the method: as §1

[27] = molecular target: Neu5Ac(a2-3)Gal(b1-4)GlcNAc(b1-3)Gal(b1-4)[Fuc(a1-3)]GlcNAc
Summary of the method: as §1

[28] = molecular target: Neu5Ac(a2-3)Gal(b1-4)GlcNAc(b1-3)GalNAc
Summary of the method: as §1

[29] = molecular target: Neu5Ac(a2-3)Gal(b1-4)GlcNAc(b1-3)[Neu5Ac(a2-3)Gal(b1-4)GlcNAc(b1-6)]GalNAc
Summary of the method: as §1

B1: Awp1 (Candida glabrata) (protein)
chain: MSLITIFAFLIKATLVLSLDILTPTTLTGDQTFNEDVSVVSSLTLNDGSQYLFNNLLQIAPSSASVTANALAAVSVFTFSLPPSSSLSNSGTLIISNSNTGPSTEQHIVITPNVMANTGTITLSLAHTNTDSSSTLIIDPVTFYNTGTINYESIGSETNDPSLTGNILSIGSSGRTLQNLGTINLNAANSYYLLGTITENSGSINVQKGFLYVNALDFIGNTINLSTTTALAFISPVSQVVRVRGVFFGNIIASVGSSGTFSYNTQTGILTVTTNGVYSYDIGCGYNPALMSGQQETLSFQGNPYDTFLVLVNQPIPSDLTCAAVSSSITPSSSVEPSSSVVPSSSVEPSSSVEPSSSVEPSSSVEPSSSVEPSSSVEPSSSVEPSSSVEPSSSVEPSSSVEPSSSVEPSSSVEPSSSVEPSSSVEPSSSVEPSSSVEPSSSVEPSSSVEPSSSVEPSSLIVPSSSVEPSSSVLPSSSVVPSSSVEPSTPPIPSSSVEPSSSVVPSSPAVPSSSVEPSTPPIPSSSVVSASVFDTSSTLPSSPSVPPSSVSPSTISTPSSSAAPSSFCPTCVSSGTPPAPSSSAIVPTSSAGGGNGGDNREPGAAGQPGAAGQPGAAGQPGAAGQPGAAGQPGAAGQPGAAGQPGAAGQPGAAGQPGAAGQPGAGFGVGSEQPTPGAGAGSGSADGNQSGTGSGTGNGQQGSGQAGSGQAGSGQEGSGQAGSGQAGSGQAGSGQAGSGQAGLDNTASGQSEGGQASAMDGDQSGRDGQSNSGSLLQPNAQQGTGSGTGSDIGADQASGESPGQIGDAQPGSGTDQSSGRHSLAAEARTSQSHSLAADARTRSTTRQTSVIAPDTAPGTASGTAPGTAPGTAVVTTFHGCGTVNHKGMINILLALALLVLL
- glycan array binding signal (z-score) [1]: -1.55
- glycan array binding signal (z-score) [2]: 1.5
- glycan array binding signal (z-score) [3]: 1.6
- glycan array binding signal (z-score) [4]: 0.19
- glycan array binding signal (z-score) [5]: -3.04
- glycan array binding signal (z-score) [6]: 0.297
- glycan array binding signal (z-score) [7]: 2.06
- glycan array binding signal (z-score) [8]: 0.442
- glycan array binding signal (z-score) (Neu5Ac(a2-3)Gal(b1-4)Glc): 0.998
- glycan array binding signal (z-score) [9]: 0.13
- glycan array binding signal (z-score) [10]: -0.144
- glycan array binding signal (z-score) [11]: 0.483
- glycan array binding signal (z-score) [12]: -0.63
- glycan array binding signal (z-score) [13]: -0.775
- glycan array binding signal (z-score) [14]: 0.387
- glycan array binding signal (z-score) [15]: -1.79
- glycan array binding signal (z-score) [16]: -0.764
- glycan array binding signal (z-score) [17]: 0.49
- glycan array binding signal (z-score) [18]: 0.691
- glycan array binding signal (z-score) [19]: -0.576
- glycan array binding signal (z-score) [20]: 0.526
- glycan array binding signal (z-score) [21]: -1.91
- glycan array binding signal (z-score) [22]: -0.761
- glycan array binding signal (z-score) [23]: 1.61
- glycan array binding signal (z-score) [24]: 0.889
- glycan array binding signal (z-score) [25]: -0.297
- glycan array binding signal (z-score) [26]: -1.47
- glycan array binding signal (z-score) [27]: 1.81
- glycan array binding signal (z-score) [28]: 0.493
- glycan array binding signal (z-score) [29]: 0.697
